The source of these data is article PMC3146558 (Cellular and molecular neurobiology, 2011).

The subject of this experiment is morphine induced cAMP overshoot. Put plainly: Inhibition of morphine-induced cAMP overshoot, qHTS of LOPAC library. The class given is cell-based. In general terms: In qHTS, concentration-response curves come from the screen itself.

Where a name gives a salt, the structure may show the parent alone. Read-outs that look alike come from different tables or passages of the source.

On to `C=CCN1CC[C@]23c4c5ccc(O)c4O[C@H]2C(=O)CC[C@@]3(O)[C@H]1C5` [Naloxone hydrochloride], for which the IC50 by setting is: (18 h, read-out: Potency) 0.21 µM; (read-out: IC50) 0.2 µM.
